# Measured values as given in the supplement of paper PMC8728848.
# This is one part of the list.
# B1: MFG-E8 (Homo sapiens), Q08431 (protein)
# chain: MPRPRLLAALCGALLCAPSLLVALDICSKNPCHNGGLCEEISQEVRGDVFPSYTCTCLKGYAGNHCETKCVEPLGLENGNIANSQIAASSVRVTFLGLQHWVPELARLNRAGMVNAWTPSSNDDNPWIQVNLLRRMWVTGVVTQGASRLASHEYLKAFKVAYSLNGHEFDFIHDVNKKHKEFVGNWNKNAVHVNLFETPVEAQYVRLYPTSCHTACTLRFELLGCELNGCANPLGLKNNSIPDKQITASSSYKTWGLHLFSWNPSYARLDKQGNFNAWVAGSYGNDQWLQVDLGSSKEVTGIITQGARNFGSVQFVASYKVAYSNDSANWTEYQDPRTGSSKIFPGNWDNHSHKKNLFETPILARYVRILPVAWHNRIALRLELLGC
# Tests used:
# Test in all cases: glycan array binding signal (z-score within array); higher = stronger binding
# Conditions in all cases: glycan notation: IUPAC condensed, linker removed
# [1] = target: Neu5Ac(a2-3)[GalNAc(b1-4)]Gal(b1-4)Glc
# Outline: (§1)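 The binding signal is a Z-score computed within each array and averaged over linkers. Arrays of the same protein sequence at different concentrations or buffers were also averaged together. Data originate from 3228 arrays in the Consortium for Functional Glycomics database, kept only where the protein sequence was available.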
# [2] = target: Neu5Ac(a2-3)[GalNAc(b1-4)]Gal(b1-4)GlcNAc
# Outline: as §1
# [3] = target: Neu5Ac(a2-3)[GalNAc(b1-4)]Gal(b1-4)GlcNAc(b1-3)GalNAc
# Outline: as §1
# [4] = target: Neu5Ac(a2-3)[Neu5Ac(a2-6)]GalNAc
# Outline: as §1
# Neu5Ac(a2-6)Gal = target: Neu5Ac(a2-6)Gal
# Outline: as §1
# [5] = target: Neu5Ac(a2-6)Gal(b1-3)GlcNAc(b1-3)[Gal(b1-4)GlcNAc(b1-6)]Gal(b1-4)Glc
# Outline: as §1
# Neu5Ac(a2-6)Gal(b1-4)Glc = target: Neu5Ac(a2-6)Gal(b1-4)Glc
# Outline: as §1
# [6] = target: Neu5Ac(a2-6)Gal(b1-4)GlcNAc
# Outline: as §1
# [7] = target: Neu5Ac(a2-6)Gal(b1-4)GlcNAc(b1-2)Man(a1-3)Man(b1-4)GlcNAc(b1-4)GlcNAc
# Outline: as §1
# [8] = target: Neu5Ac(a2-6)Gal(b1-4)GlcNAc(b1-2)Man(a1-3)[Gal(b1-4)GlcNAc(b1-2)Man(a1-6)]Man(b1-4)GlcNAc(b1-4)GlcNAc
# Outline: as §1
# [9] = target: Neu5Ac(a2-6)Gal(b1-4)GlcNAc(b1-2)Man(a1-3)[GlcNAc(b1-2)Man(a1-6)]Man(b1-4)GlcNAc(b1-4)GlcNAc
# Outline: as §1
# [10] = target: Neu5Ac(a2-6)Gal(b1-4)GlcNAc(b1-2)Man(a1-3)[GlcNAc(b1-2)Man(b1-4)GlcNAc(b1-2)Man(a1-6)]Man(b1-4)GlcNAc(b1-4)GlcNAc
# Outline: as §1
# [11] = target: Neu5Ac(a2-6)Gal(b1-4)GlcNAc(b1-2)Man(a1-3)[Man(a1-6)]Man(b1-4)GlcNAc(b1-4)GlcNAc
# Outline: as §1
# [12] = target: Neu5Ac(a2-6)Gal(b1-4)GlcNAc(b1-2)Man(a1-3)[Neu5Ac(a2-6)Gal(b1-4)GlcNAc(b1-2)Man(a1-6)]Man(b1-4)GlcNAc(b1-4)GlcNAc
# Outline: as §1
# [13] = target: Neu5Ac(a2-6)Gal(b1-4)GlcNAc(b1-2)Man(a1-6)Man(b1-4)GlcNAc(b1-4)GlcNAc
# Outline: as §1
# [14] = target: Neu5Ac(a2-6)Gal(b1-4)GlcNAc(b1-2)Man(a1-6)[Gal(b1-4)GlcNAc(b1-2)Man(a1-3)]Man(b1-4)GlcNAc(b1-4)GlcNAc
# Outline: as §1
# [15] = target: Neu5Ac(a2-6)Gal(b1-4)GlcNAc(b1-2)Man(a1-6)[GlcNAc(b1-2)Man(a1-3)]Man(b1-4)GlcNAc(b1-4)GlcNAc
# Outline: as §1
# [16] = target: Neu5Ac(a2-6)Gal(b1-4)GlcNAc(b1-2)Man(a1-6)[Man(a1-3)]Man(b1-4)GlcNAc(b1-4)GlcNAc
# Outline: as §1
# [17] = target: Neu5Ac(a2-6)Gal(b1-4)GlcNAc(b1-3)Gal(b1-3)GlcNAc
# Outline: as §1
# [18] = target: Neu5Ac(a2-6)Gal(b1-4)GlcNAc(b1-3)Gal(b1-4)GlcNAc
# Outline: as §1
# [19] = target: Neu5Ac(a2-6)Gal(b1-4)GlcNAc(b1-3)Gal(b1-4)GlcNAc(b1-3)Gal(b1-4)GlcNAc
# Outline: as §1
# [20] = target: Neu5Ac(a2-6)Gal(b1-4)GlcNAc(b1-3)Gal(b1-4)[Fuc(a1-3)]GlcNAc(b1-3)Gal(b1-4)[Fuc(a1-3)]GlcNAc
# Outline: as §1
# [21] = target: Neu5Ac(a2-6)Gal(b1-4)GlcNAc(b1-3)GalNAc
# Outline: as §1
# [22] = target: Neu5Ac(a2-6)Gal(b1-4)GlcNAc6S
# Outline: as §1
# Neu5Ac(a2-6)GalNAc = target: Neu5Ac(a2-6)GalNAc
# Outline: as §1
# [23] = target: Neu5Ac(a2-6)GalNAc(b1-4)GlcNAc
# Outline: as §1
# [24] = target: Neu5Ac(a2-6)GlcNAc(b1-4)GlcNAc
# Outline: as §1
# [25] = target: Neu5Ac(a2-6)GlcNAc(b1-4)GlcNAc(b1-4)GlcNAc
# Outline: as §1
# Neu5Ac(a2-8)Neu5Ac = target: Neu5Ac(a2-8)Neu5Ac
# Outline: as §1
# [26] = target: Neu5Ac(a2-8)Neu5Ac(a2-3)Gal(b1-3)GalNAc(b1-4)[Neu5Ac(a2-8)Neu5Ac(a2-3)]Gal(b1-4)Glc
# Outline: as §1
# [27] = target: Neu5Ac(a2-8)Neu5Ac(a2-3)Gal(b1-4)Glc
# Outline: as §1
# [28] = target: Neu5Ac(a2-8)Neu5Ac(a2-3)[Gal(b1-3)GalNAc(b1-4)]Gal(b1-4)Glc
# Outline: as §1
# [29] = target: Neu5Ac(a2-8)Neu5Ac(a2-3)[GalNAc(b1-4)]Gal(b1-4)Glc
# Outline: as §1
# [30] = target: Neu5Ac(a2-8)Neu5Ac(a2-8)Neu5Ac
# Outline: as §1
# [31] = target: Neu5Ac(a2-8)Neu5Ac(a2-8)Neu5Ac(a2-3)Gal(b1-4)Glc
# Outline: as §1
# [32] = target: Neu5Ac(a2-8)Neu5Ac(a2-8)Neu5Ac(a2-3)[GalNAc(b1-4)]Gal(b1-4)Glc
# Outline: as §1
# [33] = target: Neu5Ac(a2-8)Neu5Ac(a2-8)Neu5Ac(a2-8)Neu5Ac(a2-3)[GalNAc(b1-4)]Gal(b1-4)Glc
# Outline: as §1
# [34] = target: Neu5Ac(b2-6)Gal(b1-4)GlcNAc
# Outline: as §1
# Neu5Ac(b2-6)GalNAc = target: Neu5Ac(b2-6)GalNAc
# Outline: as §1
# [35] = target: Neu5Ac9Ac(a2-3)Gal(b1-3)GlcNAc
# Outline: as §1
# [36] = target: Neu5Ac9Ac(a2-3)Gal(b1-4)GlcNAc
# Outline: as §1
# [37] = target: Neu5Ac9Ac(a2-6)Gal(b1-4)GlcNAc
# Outline: as §1
# [38] = target: Neu5Gc(a2-3)Gal(b1-3)GlcNAc
# Outline: as §1
# [39] = target: Neu5Gc(a2-3)Gal(b1-3)[Fuc(a1-4)]GlcNAc
# Outline: as §1
# Neu5Gc(a2-3)Gal(b1-4)Glc = target: Neu5Gc(a2-3)Gal(b1-4)Glc
# Outline: as §1
# [40] = target: Neu5Gc(a2-3)Gal(b1-4)GlcNAc
# Outline: as §1
# [41] = target: Neu5Gc(a2-3)Gal(b1-4)[Fuc(a1-3)]GlcNAc
# Outline: as §1
# [42] = target: Neu5Gc(a2-6)Gal(b1-4)GlcNAc
# Outline: as §1
# Neu5Gc(a2-6)GalNAc = target: Neu5Gc(a2-6)GalNAc
# Outline: as §1
# [43] = target: Neu5Gc(b2-6)Gal(b1-4)GlcNAc
# Outline: as §1
binder,measurement,setting,value
B1,glycan array binding signal (z-score),[1],-0.452
same,glycan array binding signal (z-score),[2],-0.29
same,glycan array binding signal (z-score),[3],0.405
same,glycan array binding signal (z-score),[4],0.715
same,glycan array binding signal (z-score),Neu5Ac(a2-6)Gal,-0.01
same,glycan array binding signal (z-score),[5],1.42
same,glycan array binding signal (z-score),Neu5Ac(a2-6)Gal(b1-4)Glc,-0.016
same,glycan array binding signal (z-score),[6],-0.609
same,glycan array binding signal (z-score),[7],1.53
same,glycan array binding signal (z-score),[8],0.312
same,glycan array binding signal (z-score),[9],1.68
same,glycan array binding signal (z-score),[10],1.69
same,glycan array binding signal (z-score),[11],1.41
same,glycan array binding signal (z-score),[12],1.09
same,glycan array binding signal (z-score),[13],-0.427
same,glycan array binding signal (z-score),[14],0.119
same,glycan array binding signal (z-score),[15],0.049
same,glycan array binding signal (z-score),[16],-0.067
same,glycan array binding signal (z-score),[17],-0.432
same,glycan array binding signal (z-score),[18],0.298
same,glycan array binding signal (z-score),[19],-0.226
same,glycan array binding signal (z-score),[20],-0.74
same,glycan array binding signal (z-score),[21],1.82
same,glycan array binding signal (z-score),[22],-0.048
same,glycan array binding signal (z-score),Neu5Ac(a2-6)GalNAc,-0.082
same,glycan array binding signal (z-score),[23],-0.42
same,glycan array binding signal (z-score),[24],-0.619
same,glycan array binding signal (z-score),[25],-0.21
same,glycan array binding signal (z-score),Neu5Ac(a2-8)Neu5Ac,0.218
same,glycan array binding signal (z-score),[26],-0.776
same,glycan array binding signal (z-score),[27],0.83
same,glycan array binding signal (z-score),[28],-0.532
same,glycan array binding signal (z-score),[29],0.445
same,glycan array binding signal (z-score),[30],0.328
same,glycan array binding signal (z-score),[31],-0.286
same,glycan array binding signal (z-score),[32],1.06
same,glycan array binding signal (z-score),[33],-0.155
same,glycan array binding signal (z-score),[34],-0.205
same,glycan array binding signal (z-score),Neu5Ac(b2-6)GalNAc,1.84
same,glycan array binding signal (z-score),[35],-0.732
same,glycan array binding signal (z-score),[36],-0.402
same,glycan array binding signal (z-score),[37],0.932
same,glycan array binding signal (z-score),[38],-0.636
same,glycan array binding signal (z-score),[39],0.135
same,glycan array binding signal (z-score),Neu5Gc(a2-3)Gal(b1-4)Glc,-0.361
same,glycan array binding signal (z-score),[40],1
same,glycan array binding signal (z-score),[41],-0.483
same,glycan array binding signal (z-score),[42],-0.196
same,glycan array binding signal (z-score),Neu5Gc(a2-6)GalNAc,1.08
same,glycan array binding signal (z-score),[43],-0.408

# Laid out differently: results already given
binder | measurement | setting | value
B1 | glycan array binding signal (z-score) | [3] | 0.405
same | glycan array binding signal (z-score) | [4] | 0.715
